From the supplement of paper PMC12823440, “Inhibitors supercharge kinase turnover through native proteolytic circuits” (Nature, 2025)
Some of the results follow. The calls rarely recur for the same compound in another form.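 Kinases, fused to nanoluciferase, were expressed in K562 cells; luminescence was measured every 4 h from 2 to 18 h as percent of control (DMSO = 100%, positive control = 0%). A time point is decreased if signal falls significantly (2 sigma). Hits were called by the authors by a rule that is not shown; the count of time points alone does not decide it.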

Sequences of proteins named here, by UniProt entry; tags and fusion partners are left off. A change or cut given only in a name is not applied to a line headed by its entry.
UniProt Q14289, whole entry, looked up: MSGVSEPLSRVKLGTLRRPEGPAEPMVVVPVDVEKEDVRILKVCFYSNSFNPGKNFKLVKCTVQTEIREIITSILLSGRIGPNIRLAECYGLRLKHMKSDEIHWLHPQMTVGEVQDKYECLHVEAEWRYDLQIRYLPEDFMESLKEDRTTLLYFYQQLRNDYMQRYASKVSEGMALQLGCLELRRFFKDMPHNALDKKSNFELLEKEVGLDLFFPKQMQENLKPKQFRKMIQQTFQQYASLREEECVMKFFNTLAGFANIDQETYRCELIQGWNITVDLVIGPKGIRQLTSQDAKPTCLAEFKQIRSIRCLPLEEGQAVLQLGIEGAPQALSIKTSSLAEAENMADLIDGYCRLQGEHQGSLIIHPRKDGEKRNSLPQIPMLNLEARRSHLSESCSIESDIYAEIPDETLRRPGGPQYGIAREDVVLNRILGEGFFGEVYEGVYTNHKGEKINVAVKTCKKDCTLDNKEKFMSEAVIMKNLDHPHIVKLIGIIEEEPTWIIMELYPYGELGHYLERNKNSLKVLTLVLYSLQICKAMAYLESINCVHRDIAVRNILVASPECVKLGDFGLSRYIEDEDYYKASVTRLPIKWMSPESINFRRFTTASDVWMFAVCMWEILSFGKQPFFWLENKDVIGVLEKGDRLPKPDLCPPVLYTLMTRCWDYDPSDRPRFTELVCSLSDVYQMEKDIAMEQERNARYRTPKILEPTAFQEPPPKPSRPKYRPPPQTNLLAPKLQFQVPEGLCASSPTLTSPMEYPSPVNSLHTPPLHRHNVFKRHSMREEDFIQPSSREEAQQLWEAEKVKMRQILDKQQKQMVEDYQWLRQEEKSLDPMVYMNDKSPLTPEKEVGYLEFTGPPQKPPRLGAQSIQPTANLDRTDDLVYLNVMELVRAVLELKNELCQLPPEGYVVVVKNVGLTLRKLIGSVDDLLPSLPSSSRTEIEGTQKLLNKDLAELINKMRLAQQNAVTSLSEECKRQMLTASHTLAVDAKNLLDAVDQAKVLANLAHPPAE
UniProt P07949, whole entry, looked up: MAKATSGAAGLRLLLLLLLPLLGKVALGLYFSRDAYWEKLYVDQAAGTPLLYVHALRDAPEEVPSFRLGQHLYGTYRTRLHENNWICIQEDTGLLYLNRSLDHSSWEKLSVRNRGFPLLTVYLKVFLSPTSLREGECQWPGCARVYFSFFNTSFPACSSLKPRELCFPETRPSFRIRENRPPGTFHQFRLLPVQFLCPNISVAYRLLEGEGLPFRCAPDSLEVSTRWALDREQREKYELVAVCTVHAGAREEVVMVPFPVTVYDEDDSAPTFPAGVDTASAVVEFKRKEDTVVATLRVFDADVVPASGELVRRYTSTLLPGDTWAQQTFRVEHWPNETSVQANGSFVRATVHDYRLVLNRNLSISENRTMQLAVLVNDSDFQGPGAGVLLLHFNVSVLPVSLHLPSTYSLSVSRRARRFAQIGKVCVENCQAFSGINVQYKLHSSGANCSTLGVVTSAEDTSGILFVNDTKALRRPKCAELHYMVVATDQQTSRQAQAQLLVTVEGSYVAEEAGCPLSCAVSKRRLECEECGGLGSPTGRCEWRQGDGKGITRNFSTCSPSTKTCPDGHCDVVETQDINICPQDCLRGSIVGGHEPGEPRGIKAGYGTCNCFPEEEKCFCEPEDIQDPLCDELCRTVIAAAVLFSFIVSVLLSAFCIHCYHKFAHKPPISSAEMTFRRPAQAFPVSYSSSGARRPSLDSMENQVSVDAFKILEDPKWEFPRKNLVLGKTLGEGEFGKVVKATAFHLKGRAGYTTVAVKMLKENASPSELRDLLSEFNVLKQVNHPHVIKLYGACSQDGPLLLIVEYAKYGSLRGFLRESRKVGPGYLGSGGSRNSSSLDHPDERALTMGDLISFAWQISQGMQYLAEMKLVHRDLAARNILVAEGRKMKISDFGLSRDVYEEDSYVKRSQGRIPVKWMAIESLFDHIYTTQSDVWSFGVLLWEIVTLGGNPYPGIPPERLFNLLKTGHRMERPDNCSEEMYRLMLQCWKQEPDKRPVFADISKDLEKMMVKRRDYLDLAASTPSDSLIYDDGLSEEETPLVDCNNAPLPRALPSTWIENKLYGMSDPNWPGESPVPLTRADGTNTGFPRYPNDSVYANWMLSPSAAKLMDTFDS
UniProt P07949, whole entry M918T, looked up: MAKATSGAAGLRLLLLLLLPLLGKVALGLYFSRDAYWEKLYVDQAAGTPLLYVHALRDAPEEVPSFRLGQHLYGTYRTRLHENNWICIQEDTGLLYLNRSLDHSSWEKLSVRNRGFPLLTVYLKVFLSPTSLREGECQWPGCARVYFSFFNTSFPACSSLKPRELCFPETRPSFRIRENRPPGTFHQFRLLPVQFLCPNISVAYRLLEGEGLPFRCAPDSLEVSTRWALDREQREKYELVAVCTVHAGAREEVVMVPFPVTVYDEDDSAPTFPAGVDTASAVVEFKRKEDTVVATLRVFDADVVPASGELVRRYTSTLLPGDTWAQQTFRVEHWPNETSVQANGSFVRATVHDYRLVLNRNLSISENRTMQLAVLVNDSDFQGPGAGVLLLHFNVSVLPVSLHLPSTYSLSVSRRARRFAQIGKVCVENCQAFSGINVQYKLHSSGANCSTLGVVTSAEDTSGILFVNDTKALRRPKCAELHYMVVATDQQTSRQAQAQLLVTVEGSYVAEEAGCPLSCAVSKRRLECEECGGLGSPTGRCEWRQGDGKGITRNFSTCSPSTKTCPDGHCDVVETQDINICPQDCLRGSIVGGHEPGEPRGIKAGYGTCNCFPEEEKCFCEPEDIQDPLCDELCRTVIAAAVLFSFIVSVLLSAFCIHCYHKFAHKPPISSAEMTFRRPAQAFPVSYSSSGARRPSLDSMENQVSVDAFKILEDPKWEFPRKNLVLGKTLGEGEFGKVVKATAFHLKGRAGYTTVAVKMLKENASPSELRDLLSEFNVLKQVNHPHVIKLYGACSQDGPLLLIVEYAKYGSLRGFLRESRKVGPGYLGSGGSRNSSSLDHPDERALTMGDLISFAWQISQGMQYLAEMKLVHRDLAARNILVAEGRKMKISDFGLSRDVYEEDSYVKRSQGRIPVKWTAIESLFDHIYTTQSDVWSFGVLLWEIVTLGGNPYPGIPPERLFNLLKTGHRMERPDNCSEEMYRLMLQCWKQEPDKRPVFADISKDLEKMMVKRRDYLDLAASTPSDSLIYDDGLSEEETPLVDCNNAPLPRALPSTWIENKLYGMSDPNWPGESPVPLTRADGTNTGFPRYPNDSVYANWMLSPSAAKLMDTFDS
UniProt Q01974, whole entry: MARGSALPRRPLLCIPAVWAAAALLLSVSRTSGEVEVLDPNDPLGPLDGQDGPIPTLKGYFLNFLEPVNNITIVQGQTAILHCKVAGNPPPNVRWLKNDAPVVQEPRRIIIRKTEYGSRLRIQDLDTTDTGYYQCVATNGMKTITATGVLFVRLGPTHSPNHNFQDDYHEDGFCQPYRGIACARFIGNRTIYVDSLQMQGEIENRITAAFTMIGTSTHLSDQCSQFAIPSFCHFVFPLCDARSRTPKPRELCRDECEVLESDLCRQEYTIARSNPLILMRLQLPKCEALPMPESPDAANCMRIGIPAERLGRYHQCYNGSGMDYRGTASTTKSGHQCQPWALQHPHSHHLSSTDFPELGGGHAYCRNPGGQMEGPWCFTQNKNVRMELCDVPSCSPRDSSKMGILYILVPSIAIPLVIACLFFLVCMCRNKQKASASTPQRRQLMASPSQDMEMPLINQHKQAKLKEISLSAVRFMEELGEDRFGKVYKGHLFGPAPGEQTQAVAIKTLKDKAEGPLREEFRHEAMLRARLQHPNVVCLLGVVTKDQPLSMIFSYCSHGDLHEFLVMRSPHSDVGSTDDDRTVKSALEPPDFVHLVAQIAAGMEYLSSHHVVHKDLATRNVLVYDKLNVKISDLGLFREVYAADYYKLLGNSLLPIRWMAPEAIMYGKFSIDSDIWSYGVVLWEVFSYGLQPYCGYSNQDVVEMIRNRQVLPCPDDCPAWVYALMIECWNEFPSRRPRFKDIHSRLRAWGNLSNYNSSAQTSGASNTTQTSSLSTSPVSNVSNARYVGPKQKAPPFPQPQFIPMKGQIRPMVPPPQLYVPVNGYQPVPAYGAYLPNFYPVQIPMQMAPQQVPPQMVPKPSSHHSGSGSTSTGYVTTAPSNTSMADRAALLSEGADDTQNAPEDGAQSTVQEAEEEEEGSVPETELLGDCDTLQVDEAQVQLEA
UniProt Q9NYA1, whole entry: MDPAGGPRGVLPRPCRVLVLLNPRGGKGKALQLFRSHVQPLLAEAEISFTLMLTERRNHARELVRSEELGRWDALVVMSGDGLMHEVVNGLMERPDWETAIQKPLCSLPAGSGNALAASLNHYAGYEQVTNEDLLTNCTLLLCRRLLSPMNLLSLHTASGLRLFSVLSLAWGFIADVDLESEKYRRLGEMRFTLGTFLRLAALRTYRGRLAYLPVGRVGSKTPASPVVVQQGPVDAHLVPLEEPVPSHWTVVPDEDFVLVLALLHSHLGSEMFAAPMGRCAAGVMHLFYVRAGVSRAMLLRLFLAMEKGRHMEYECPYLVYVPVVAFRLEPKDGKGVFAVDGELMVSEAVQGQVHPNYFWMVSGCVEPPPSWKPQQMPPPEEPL
UniProt Q15208: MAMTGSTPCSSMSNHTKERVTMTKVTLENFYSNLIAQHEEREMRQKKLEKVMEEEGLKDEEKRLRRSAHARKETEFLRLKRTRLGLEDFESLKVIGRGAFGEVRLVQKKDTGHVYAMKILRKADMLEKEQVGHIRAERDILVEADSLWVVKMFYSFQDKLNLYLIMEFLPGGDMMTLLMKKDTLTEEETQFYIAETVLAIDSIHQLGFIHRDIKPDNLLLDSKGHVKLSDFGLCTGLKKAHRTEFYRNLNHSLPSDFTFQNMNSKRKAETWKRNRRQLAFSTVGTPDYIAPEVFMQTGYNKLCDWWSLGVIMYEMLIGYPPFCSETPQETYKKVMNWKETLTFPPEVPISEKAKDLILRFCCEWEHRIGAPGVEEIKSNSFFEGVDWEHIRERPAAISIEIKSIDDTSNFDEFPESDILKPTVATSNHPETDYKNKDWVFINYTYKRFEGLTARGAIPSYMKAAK
UniProt Q6PHR2: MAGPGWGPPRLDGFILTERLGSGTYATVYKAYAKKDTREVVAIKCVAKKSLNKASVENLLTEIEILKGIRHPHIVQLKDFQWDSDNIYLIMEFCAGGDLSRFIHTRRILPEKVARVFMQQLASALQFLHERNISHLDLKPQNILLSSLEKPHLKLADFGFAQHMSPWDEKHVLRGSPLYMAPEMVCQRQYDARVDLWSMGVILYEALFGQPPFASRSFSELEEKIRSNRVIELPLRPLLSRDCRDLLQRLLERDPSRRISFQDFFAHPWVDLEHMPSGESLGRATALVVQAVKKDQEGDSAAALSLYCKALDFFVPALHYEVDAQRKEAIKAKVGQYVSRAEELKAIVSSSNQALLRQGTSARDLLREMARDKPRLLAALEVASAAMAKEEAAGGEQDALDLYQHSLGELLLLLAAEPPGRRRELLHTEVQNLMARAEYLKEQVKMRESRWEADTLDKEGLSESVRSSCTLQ

Columns and labels:
Assay in all cases: number of time points (of 5) at which kinase-Nluc abundance scored as decreased, DMSO-normalised (count); higher = more persistent destabilization
Settings in all cases: K562; 2-18 h
PRKCA = PRKCA (UniProt P17252)
PTK2 = PTK2 (UniProt Q05397)
PTK2B = PTK2B (UniProt Q14289)
RAF1 = RAF1 (UniProt P04049)
[1] = molecular target: RAF1_S257L (clone: RAF1_mut) (UniProt P04049)
RET = RET (UniProt P07949)
[2] = molecular target: RET_M918T (clone: RET_mut) (UniProt P07949)
RIOK1 = RIOK1 (UniProt Q9BRS2)
RIPK1 = RIPK1 (UniProt Q13546)
RIPK2 = RIPK2 (UniProt O43353)
ROR2 = ROR2 (UniProt Q01974)
RPS6KA1 = RPS6KA1 (UniProt Q15418)
SPHK1 = SPHK1 (UniProt Q9NYA1)
SRC = SRC (UniProt P12931)
STK24 = STK24 (UniProt Q9Y6E0)
STK38 = STK38 (UniProt Q15208)
SYK = SYK (UniProt P43405)
TEC = TEC (UniProt P42680)
TYK2 = TYK2 (UniProt P29597)
ULK3 = ULK3 (UniProt Q6PHR2)

Compound	number of time points (PRKCA)	number of time points (PTK2)	number of time points (PTK2B)	number of time points (RAF1)	number of time points [1]	number of time points (RET)	number of time points [2]	number of time points (RIOK1)	number of time points (RIPK1)	number of time points (RIPK2)	number of time points (ROR2)	number of time points (RPS6KA1)	number of time points (SPHK1)	number of time points (SRC)	number of time points (STK24)	number of time points (STK38)	number of time points (SYK)	number of time points (TEC)	number of time points (TYK2)	number of time points (ULK3)
CCc1ccc(C(=O)COc2ccc(CC3SC(=O)NC3=O)cc2)nc1 (stereo not given) (10 µM)	0	0	0	0	0	0	0	0	0	0	0	0	0	0	0	0	0	0	0	0
Nc1[nH]c(=O)nc2c1ncn2[C@@H]1O[C@H](CO)[C@@H](O)[C@H]1O [Crotonoside] (10 µM)	0	0	0	0	0	0	0	0	0	0	0	0	0	0	0	0	0	0	0	0
COc1cc(-c2cc(-c3cc(OC)c(OC)c(OC)c3)cc(C(F)P(=O)(OCOC(=O)C(C)(C)C)OCOC(=O)C(C)(C)C)c2)cc(OC)c1OC (stereo not given) [Stafia-1-dipivaloyloxymethyl ester] (2.5 µM)	0	0	0	0	0	0	0	0	0	0	0	0	0	0	0	0	0	0	0	0
NC(=O)c1ccc(-c2cnn3ccc(NCc4cccnc4)nc23)cc1 (2.5 µM)	0	0	0	0	0	0	0	0	0	2	0	0	0	0	0	0	0	0	0	0
O=C(O)c1ccccc1Nc1cccc(C(F)(F)F)c1 [Flufenamic acid] (10 µM)	0	0	0	0	0	0	0	0	0	0	1	0	0	0	0	0	0	0	0	0
CN(C)C(=O)c1ccc(S(=O)(=O)c2ccc(NC(=O)[C@@](C)(O)C(F)(F)F)c(Cl)c2)cc1 (10 µM)	0	1	0	0	2	0	0	0	0	0	0	0	0	0	0	0	0	0	0	0
CN(C)c1ncnc2nc[nH]c12 [6-(Dimethylamino)purine] (10 µM)	0	0	0	0	0	0	0	0	0	0	0	0	0	0	0	0	0	0	0	0
CNC(=O)c1cc(Oc2ccc3nc(N[C@@H]4CCCC[C@H]4O)sc3c2)ccn1 (10 µM)	0	0	0	0	0	0	0	0	0	0	0	0	0	0	0	0	0	0	0	0
COc1ccc2c(c1OC)OC1c3ccc(O)cc3OCC21 (stereo not given) [Methylnissolin] (10 µM)	0	0	0	0	0	0	0	2	0	0	0	0	0	0	0	0	0	0	0	0
CC(C)(C)C(=O)N1N=CC[C@H]1c1ccccc1 (10 µM)	0	0	0	0	0	0	0	0	0	0	0	0	0	0	0	0	0	0	0	0
CCOC(=O)c1c2c3c(cccc3[nH]c1=O)C(=O)c1ccccc1-2 (10 µM)	0	0	0	0	0	0	0	0	0	0	0	0	0	0	0	0	0	0	0	0
CC1=C(CC(=O)O)c2cc(F)ccc2/C1=C\c1ccc(C(C)C)cc1 (10 µM)	1	0	0	0	0	0	0	0	0	0	0	1	0	0	0	0	0	0	0	0
c1cc(-c2cnn3cc(-c4ccc(N5CCNCC5)cc4)cnc23)c2cccnc2c1 (2.5 µM)	0	2	0	0	0	0	0	0	0	2	0	0	0	0	0	0	0	0	0	0
COc1cnccc1Nc1nc(-c2nn(Cc3c(F)cc(OCCO)cc3F)c3ccccc23)ncc1OC (10 µM)	0	0	0	0	0	0	0	0	0	0	0	0	0	0	0	0	0	0	0	0
O=C(CO)N1CCC(c2n[nH]c(-c3ccc(Cl)cc3)c2-c2ccncn2)CC1 (10 µM)	0	0	0	0	0	0	0	0	0	0	0	0	0	0	0	0	0	0	0	0
Cc1nc(NC(=O)NCCc2nnn(CCF)n2)sc1-c1ccc(S(C)(=O)=O)c(F)c1 (10 µM)	0	0	0	0	0	0	0	0	0	0	0	0	3	0	0	0	0	0	0	0
C=CC(=O)N1CCC[C@@H](n2nc(C(=O)Nc3ccc(CC(=O)N(C)C)c(C)c3C)c3c(N)ncnc32)C1 (10 µM)	0	0	0	0	0	0	0	0	0	0	0	0	0	0	0	0	0	0	0	0
Nc1cc(C(F)F)c(-c2nc(N3C4CCC3COC4)nc(N3C4CCC3COC4)n2)cn1 (2.5 µM)	0	3	0	0	0	0	0	0	0	0	0	0	0	0	0	0	0	0	0	0
CC(=O)Nc1nc2ccc(-c3cnc(C)c(NC(=O)OC4CCCCC4)c3)cc2s1 (10 µM)	0	0	0	0	0	0	0	0	0	0	0	0	0	0	0	0	0	0	0	0
CC(C)(C)Cn1c(N)nc2ccc(-c3[nH]c(C(C)(C)C)nc3-c3ccc(F)cc3)nc21 [Ralimetinib dimesylate] (2.5 µM)	0	0	0	0	0	0	0	0	0	0	0	0	0	0	0	0	0	0	0	0
CC1(N)CCN(c2cnc3c(-c4cccc(Cl)c4Cl)[nH]nc3n2)CC1 (2.5 µM)	0	0	0	0	0	0	0	0	0	0	0	0	0	0	0	0	0	0	0	0
[O-][n+]1cccc(-c2nc3c(Cl)cccc3cc2[C@@H](Nc2ncnc3cccnc23)C(F)(F)F)c1 [Seletalisib] (10 µM)	0	0	0	0	0	0	0	0	0	0	0	0	0	0	0	0	0	0	0	0
COc1c(O)cc2oc3cc(O)c(CC=C(C)C)c(O)c3c(=O)c2c1CCC(C)(C)O [Garcinone D] (2.5 µM)	0	0	0	0	0	0	0	0	0	0	0	0	0	0	0	0	0	0	0	0
C[C@@H]1C[C@H]2O[C@@]3(O[C@@H]2C(C)(C)O)[C@H](O)[C@@]2(C)[C@@H]4CC[C@H]5C(C)(C)[C@@H](O[C@@H]6OC[C@H](O)[C@H](O)[C@H]6O)CC[C@@]56C[C@@]46CC[C@]2(C)[C@@H]13 [Cimiracemoside C] (10 µM)	0	0	0	0	0	0	0	0	0	0	0	0	0	0	0	0	0	0	0	0

Some values from the results shown.
O=C(O)c1ccccc1Nc1cccc(C(F)(F)F)c1 [Flufenamic acid] (10 µM) – number of time points (RET): 0
C[C@@H]1C[C@H]2O[C@@]3(O[C@@H]2C(C)(C)O)[C@H](O)[C@@]2(C)[C@@H]4CC[C@H]5C(C)(C)[C@@H](O[C@@H]6OC[C@H](O)[C@H](O)[C@H]6O)CC[C@@]56C[C@@]46CC[C@]2(C)[C@@H]13 [Cimiracemoside C] (10 µM) – number of time points (STK38): 0
